For some assays here: A negative result means that nothing was seen under these conditions. For some assays here: Protein sequences can lack the tags named with them. For some assays here: For at least one entry, the source does not settle the construct or the ends of the probe.
Assays:
Experiment in all cases: activity in cells
[1] = target: NF-kB p65 (endogenous, HEK-293) (UniProt Q04206); details: protein in cells
[2] = target: T1, MS2 coat protein (MS2-DsRed) (Bacteriophage MS2) (UniProt P03612)
T1 sequence (looked up, limits assumed): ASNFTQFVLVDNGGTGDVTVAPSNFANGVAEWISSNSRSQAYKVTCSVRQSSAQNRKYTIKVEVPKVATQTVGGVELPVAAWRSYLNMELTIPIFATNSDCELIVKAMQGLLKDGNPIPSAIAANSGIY

Sequences of proteins named here, by UniProt entry; tags and fusion partners are left off. Residues count along the entry.
UniProt Q04206, whole entry: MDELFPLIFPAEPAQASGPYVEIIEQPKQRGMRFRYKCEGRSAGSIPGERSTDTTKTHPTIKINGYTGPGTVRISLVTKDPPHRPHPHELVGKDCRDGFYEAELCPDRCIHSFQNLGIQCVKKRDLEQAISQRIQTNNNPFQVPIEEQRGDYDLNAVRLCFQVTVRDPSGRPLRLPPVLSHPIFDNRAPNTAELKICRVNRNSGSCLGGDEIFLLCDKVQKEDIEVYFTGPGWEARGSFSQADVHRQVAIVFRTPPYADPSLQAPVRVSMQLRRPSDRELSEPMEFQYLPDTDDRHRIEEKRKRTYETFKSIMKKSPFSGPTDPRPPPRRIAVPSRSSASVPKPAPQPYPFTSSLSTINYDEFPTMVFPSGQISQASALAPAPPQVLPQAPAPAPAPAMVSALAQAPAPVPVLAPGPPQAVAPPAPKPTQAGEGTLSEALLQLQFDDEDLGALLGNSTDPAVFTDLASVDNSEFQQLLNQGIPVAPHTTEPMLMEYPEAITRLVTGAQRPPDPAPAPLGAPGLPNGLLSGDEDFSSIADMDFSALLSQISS
UniProt P35222, 2-781: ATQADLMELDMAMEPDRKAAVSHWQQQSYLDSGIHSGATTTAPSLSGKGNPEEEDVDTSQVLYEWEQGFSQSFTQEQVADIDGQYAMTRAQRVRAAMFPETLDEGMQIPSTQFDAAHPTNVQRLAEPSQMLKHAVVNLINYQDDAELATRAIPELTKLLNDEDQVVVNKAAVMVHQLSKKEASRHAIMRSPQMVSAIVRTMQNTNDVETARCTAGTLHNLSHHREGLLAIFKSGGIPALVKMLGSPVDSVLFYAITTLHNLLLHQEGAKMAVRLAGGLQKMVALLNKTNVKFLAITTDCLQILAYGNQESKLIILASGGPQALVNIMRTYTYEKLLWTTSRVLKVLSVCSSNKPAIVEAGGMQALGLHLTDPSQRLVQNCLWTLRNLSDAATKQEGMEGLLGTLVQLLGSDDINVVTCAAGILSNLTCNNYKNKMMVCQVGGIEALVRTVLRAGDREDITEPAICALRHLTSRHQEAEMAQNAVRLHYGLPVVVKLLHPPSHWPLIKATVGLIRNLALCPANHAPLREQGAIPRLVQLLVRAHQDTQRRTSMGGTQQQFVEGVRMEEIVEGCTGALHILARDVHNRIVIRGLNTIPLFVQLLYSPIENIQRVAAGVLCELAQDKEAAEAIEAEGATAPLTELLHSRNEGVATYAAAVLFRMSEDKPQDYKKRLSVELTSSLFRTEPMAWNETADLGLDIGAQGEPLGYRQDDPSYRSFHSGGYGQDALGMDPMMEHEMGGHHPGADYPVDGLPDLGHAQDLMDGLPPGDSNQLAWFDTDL

[3] = target: T2, MS2 coat protein (MS2-Venus) (Bacteriophage MS2) (UniProt P03612); details: MS2Δ-3-Puma device; insignificant response; protein in cells; protein details: FLAG-SV40 NLS N-terminal, Venus fusion; variant of MS2 aptamer; counted as no effect
T2 sequence (looked up, limits assumed): T1 sequence (looked up, limits assumed)

[4] = target: T3, NF-kB p50 (endogenous, HEK-293) (UniProt P19838); details: protein in cells
T3 sequence (looked up, limits assumed): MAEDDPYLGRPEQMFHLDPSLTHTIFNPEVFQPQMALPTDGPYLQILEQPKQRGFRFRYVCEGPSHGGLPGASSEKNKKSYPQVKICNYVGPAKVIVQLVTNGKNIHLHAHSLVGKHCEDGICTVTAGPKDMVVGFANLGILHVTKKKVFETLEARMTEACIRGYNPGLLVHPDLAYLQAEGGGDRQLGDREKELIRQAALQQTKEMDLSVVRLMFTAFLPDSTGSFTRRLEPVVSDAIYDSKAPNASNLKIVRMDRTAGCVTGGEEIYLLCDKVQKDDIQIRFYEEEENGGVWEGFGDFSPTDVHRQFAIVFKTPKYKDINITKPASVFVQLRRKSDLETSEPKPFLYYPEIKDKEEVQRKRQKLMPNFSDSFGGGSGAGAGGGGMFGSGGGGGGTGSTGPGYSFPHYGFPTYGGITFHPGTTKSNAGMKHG

NF-kB p50 (p50-DsRed) = details: protein in cells; dose not given here
[5] = target: beta-catenin (endogenous, HEK-293) (UniProt P35222); details: mutant control; response specific to wild-type aptamer; protein in cells; variant of beta-catenin aptamer; dose not given here
[6] = position 3, TNF-α 20 ng/ml, decreased GFP (P<0.05) and exon exclusion

With “ACUCGCCUUAAGCUGGGUGAUGGGAAUGUGUUUACCCCGCCUAAAUGCGUCCAAAAUAAGCACGACAGGAAGAACAUUCGAAG [NF-kB p65Δ aptamer]” the “functional effect of the aptamer” value ([1]; mutant control, response specific to wild-type aptamer, variant of NF-kB p65 aptamer, dose not given here) was “not active”.
For CGUACACCAUCAGGGUACG [MS2 aptamer], the functional effect ([2]; aptamer in SMN1 mini-gene introns, GFP/splicing change in HEK-293, 6 positions increased and 3 decreased fluorescence (P<0.05), about 2-4 fold, protein in …) was “active”.
With CGUACCCAUCAGGGUACG [MS2Δ aptamer] the functional effect (% increase in apoptosis) [3] was 10 and the functional effect ([2]; mutant aptamer control, effects specific to wild-type aptamer, protein in cells, variant of MS2 aptamer) was “not active”.
In the case of “CGUAGCCGGUUGGAAUUUUGUCAAAGUCCUACG [NF-kB p50(1)Δ and p50(2)Δ aptamer]”, the “functional effect of the aptamer” value ([4]; mutant control, response specific to wild-type aptamer, variant of NF-kB p50(1) aptamer, dose not given here) is reported as “not active”.
In the case of “GAAGCUUACAAGAAGGACAGCACGAAUAAAACCUGCGUAAAUCCGCCCCAUUUGUGUAAGGGUAGUGGGUCGAAUUCCGCUCA [NF-kB p65 aptamer]”, the “functional effect of the aptamer” value ([1]; position 3, TNF-α 20 ng/ml, increased GFP (P<0.01) and exon exclusion) is reported as “active”.
“GAUCUUGAAACUGUUUUAAGGUUGGCCGAUC [NF-kB p50(2) aptamer]” was tested, and the “functional effect of the aptamer” value [4, 6] was “active” and the “functional effect of the aptamer” value (NF-kB p50 (p50-DsRed)) was “active”.
In the case of “GCAUCCUGAAACUGUUUUAAGGUUGGCCGAUGC [NF-kB p50(1) aptamer]”, the “functional effect of the aptamer” value [4, 6] is reported as “active” and the “functional effect of the aptamer” value (NF-kB p50 (p50-DsRed)) is reported as “active”.
For “UCGGUUAGCAAUUUCAUAGGCCACACGGAUAUCGCAGGUAUCUAGCCGGA [beta-cateninΔ aptamer]”, the “functional effect of the aptamer” value [5] was “not active”.

— patent US20110111411
